We go through 39 compounds from PubChem BioAssay AID2685 (National Center for Advancing Translational Sciences (NCATS), 2010).

The list shows a part of the results. The main result of the screen is listed elsewhere. These columns were measured beside it and carry no call. Most of these compounds were active or inconclusive in the main read-out, so they are no random draw. Words in brackets tell the shape of the fitted curve; partial curves, single points and poor fits give uncertain potencies.

The experiment can be described thus: qHTS Assay for Lipid Storage Modulators in Drosophila S3 Cells.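 As to cell number change: cells counted by Cell Tracker Red CMTPX staining in the red channel.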 The following applies: BODIPY lipid droplet fluorescence, 18-24 h; for cell number change: measured here: cell count max response, cells fed with added oleic acid. In outline:
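Drosophila S3 cells loaded with oleic acid (400 uM, as added) and compounds at several concentrations; lipid droplets imaged by 488-nm laser-scanning cytometry, 500–530 nm intensity and object ratio to cell channel. Percent activity normalized to 20 uM Triacsin C.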

[1] abbreviates: measured here: cell number channel AC50, cells fed with added oleic acid.
Where [2] appears, read: measured here: lipid fluorescence (Fed channel) AC50, cells fed with added oleic acid.

For orientation: AC50 means the concentration giving half of the maximal activity seen. A lower AC50 goes with greater potency. For `CCN(CC)CCCNc1nc(SC)nc2sc3c(c12)CCN(C)C3`, the cell number change worked out at 33.3%. Also, the AC50 under setting [1] was 29.1 µM [rising, single point].
On to `CC1CCCC(NC(=O)CCn2c(=O)oc3ccccc32)C1C` (stereo unspecified), for which the cell number change stood at 9.68%. In addition, under setting [2], the AC50 was 0.184 µM [rising, full curve, poor fit].
Regarding `O=c1[nH]c(C2CCCN(S(=O)(=O)c3ccc(F)cc3)C2)nc2c1nnn2Cc1ccc(F)cc1` (stereo unspecified), the cell number change is -17.1%.
Turning to `Nc1nc(O)c(N=Nc2ccc(S(N)(=O)=O)cc2)c(=O)[nH]1`, under setting [1], the AC50 is 4.61 µM [rising, single point].
Regarding `COc1ccc(S(=O)(=O)N2CCC(C(=O)NCCc3c[nH]c4ccccc34)CC2)cc1`, the cell number change was -2.82%.
For the compound `C=CCOc1c(OC)cc(/C=N/Nc2cccc(C(=O)O)c2)c(Br)c1Br`, the cell number change stood at 22.3%. Moreover, the AC50 under setting [2] is 16.4 µM [rising, single point].
Consider `Cc1ccc(C(=O)C(C)OC(=O)Cn2c(C)csc2=O)cc1` (stereo unspecified), for which the cell number change came to 5.23%. In addition, the half-maximal activity concentration (AC50) under setting [2] was 9.2 µM [rising, partial curve].
For the compound `CC(C)N(Cc1nc(-c2ccc(Cl)cc2)no1)C(=O)CCC1CCCC1`, the cell number change amounted to 106%. Also, the concentration at half-maximal activity (AC50) under setting [1] is 10.3 µM [rising, partial curve]. The AC50 under setting [2] was 11.6 µM [rising, partial curve].
Turning to `CC(=O)NCCC(=O)Nc1cc(S(=O)(=O)N2CCCCC2)ccc1Oc1cccc(C)c1`, the cell number change is -14.6%. Also, under setting [2], the concentration at half-maximal activity (AC50) was 3.66 µM [falling, full curve].
Regarding `CCc1nnc(SCc2ccc(C(=O)OC)o2)n1N`, the cell number change was -17.6%.
In the case of `O=C(Nc1cn(-c2ccccc2)nc1-c1ccccc1)c1ccccc1`, the cell number change is 28.7%. The half-maximal activity concentration (AC50) under setting [2] is 29.1 µM [rising, single point].
Turning to `COC(=O)c1cc(S(=O)(=O)N2CCN(c3ccccc3OC)CC2)cn1C`, the cell number change turned out to be 15.2%. The half-maximal activity concentration (AC50) under setting [2] was 0.116 µM [rising, single point].
On to `Cc1ccc(C(=O)CN2C(=O)NC3(CCc4ccccc43)C2=O)s1` (stereo unspecified), for which the cell number change worked out at 11.4%. Besides, the half-maximal activity concentration (AC50) under setting [2] was 29.1 µM [falling, single point].
Regarding `CCOc1cc(CNc2ccccc2)cc(Br)c1OCC(=O)NC(C)(C)C`, the cell number change came out at 41.5%. Under setting [1], the AC50 was 20.6 µM [rising, single point]. Moreover, the AC50 under setting [2] was 14.6 µM [rising, partial curve].
Consider `O=C(O)CCc1nn2cnc3sc4c(c3c2nc1=O)CCCC4`, for which the cell number change came to 10.3%. For the same compound, under setting [2], the AC50 was 29.1 µM [falling, single point].
As for `CC(=O)c1ccc(C(=O)N(C)C2CCCN(Cc3ccccc3F)C2)s1` (stereo unspecified), the cell number change is -25.7%. Besides, the AC50 under setting [2] was 29.1 µM [rising, single point].
In the case of `Cc1ccc2oc(NC(=O)N3CCOCC3)cc(=O)c2c1`, the cell number change was -2.03%. For the same compound, the half-maximal activity concentration (AC50) under setting [2] was 2.91 µM [rising, full curve].
Consider `Cc1nc2sc(C(=O)c3ccccc3)c(N)c2c(C)c1C`, for which the cell number change turned out to be 8.81%. Moreover, the concentration at half-maximal activity (AC50) under setting [2] is 2.59 µM [rising, single point].
Turning to `CN(C(=O)CO/N=C/c1ccc(OC(F)F)cc1)C1CCS(=O)(=O)C1` (stereo unspecified), the cell number change is -23.6%. Under setting [2], the concentration at half-maximal activity (AC50) is 1.64 µM [falling, partial curve, poor fit].
On to `Cc1cccc2nc(Cn3c(=O)n(CCC(=O)NCc4ccco4)c(=O)c4sccc43)cc(=O)n12`, for which the cell number change came to 14.2%. Moreover, the AC50 under setting [2] was 0.0731 µM [rising, full curve, poor fit].
`Cc1nnc(NC(=O)c2cccc(F)c2)s1`: under setting [2], the AC50 is 1.84 µM [falling, partial curve].
Take `CCOC(=O)c1ccc2c(c1)C1C=CCC1C(C(=O)O)N2` (stereo unspecified): the cell number change was 2.34%. The AC50 under setting [2] is 5.17 µM [rising, single point].
With `Cc1sc(NC(=O)Cc2ccc3c(c2)OCO3)nc1-c1ccc2c(c1)CCN2C(=O)c1cccc(F)c1`, the cell number change was -0.854%. Moreover, the half-maximal activity concentration (AC50) under setting [2] was 5.8 µM [rising, single point].
In the case of `COc1ccccc1C1C([N+](=O)[O-])=CC([N+](=O)[O-])=CN1C` (stereo unspecified), the cell number change is -18.3%. Further, under setting [2], the half-maximal activity concentration (AC50) was 29.1 µM [falling, single point].
As to `S=c1[nH]nc(-c2ccco2)n1-c1ccccc1Cl`, the cell number change came out at 15.2%. The AC50 under setting [2] is 0.0058 µM [rising, full curve, poor fit].
For `Cc1ccc(S(=O)(=O)N2CCN(C(=O)c3ccco3)CC2)cc1`, the cell number change turned out to be 6.32%. Further, the AC50 under setting [2] was 6.51 µM [falling, single point].
In the case of `Cc1cccc(OCCCc2c(C)n[nH]c2C)c1`, the cell number change was -27.4%.
Consider `O=C(CCC(=O)N(CC(=O)NC1CCCC1)Cc1ccc(F)cc1)Nc1nccs1`, for which the cell number change came out at 11.7%.
As to `Cc1ccc(/C(=N/Nc2nc3ccccc3s2)C2=C(O)c3ccccc3C2=O)cc1`, the cell number change worked out at 48.8%. For the same compound, the AC50 under setting [1] is 0.146 µM [rising, full curve, poor fit]. Besides, the AC50 under setting [2] was 23.1 µM [rising, partial curve, poor fit].
With `NC(=S)N/N=C/c1cn(-c2ccccc2)nc1-c1cccnc1`, the cell number change was -41.6%. Also, the concentration at half-maximal activity (AC50) under setting [1] is 32.6 µM [falling, single point]. For the same compound, the AC50 under setting [2] was 1.84 µM [falling, partial curve].
For `CCOC(=O)N1CCC(NS(=O)(=O)c2cc(Br)cnc2N)CC1`, the cell number change was 2.33%.
For `CCOC(=O)C1CCN(C(=O)/C=C/c2cccs2)CC1`, the cell number change stood at 4.88%. For the same compound, the half-maximal activity concentration (AC50) under setting [1] was 0.164 µM [falling, partial curve, poor fit].
On to `O=C(Nn1c(C2CCCCC2)nc2ccccc2c1=O)c1ccc([N+](=O)[O-])cc1`, for which the cell number change stood at 17.2%. The AC50 under setting [2] was 16.4 µM [rising, single point].
With `Cc1ccccc1CSc1ccc(-c2ccc3c(c2)OCO3)nn1`, the cell number change came to 31.5%. Under setting [2], the AC50 was 0.231 µM [rising, full curve].
With `O=C(CCCN1C(=O)S/C(=C\c2ccccc2)C1=O)NNC(=O)c1ccccc1O`, the AC50 is 0.00461 µM [rising, full curve, poor fit] under setting [1] and 0.00517 µM [rising, full curve, poor fit] under setting [2].
In the case of `COc1ccccc1N=Cc1c(O)c2ccccc2oc1=O`, the cell number change was -54%. Moreover, the concentration at half-maximal activity (AC50) under setting [1] was 16.4 µM [falling, partial curve, poor fit]. Besides, under setting [2], the AC50 was 25.9 µM [falling, single point].
On to `Cc1cc(NC(=O)CCC(=O)N(c2cccnc2)C(C(=O)NC2CCCC2)c2ccccc2)no1` (stereo unspecified), for which the cell number change is 16.7%. For the same compound, the AC50 under setting [2] is 20.6 µM [rising, single point].
As for `CCC(C)NS(=O)(=O)c1ccc(-c2csnn2)s1` (stereo unspecified), the cell number change was determined as 75%. Moreover, under setting [1], the AC50 is 13 µM [rising, partial curve, poor fit].
`Cc1ccc(-c2cc(C(=O)NCCCn3ccnc3)c3ccccc3n2)s1`: the cell number change came to 40.4%. For the same compound, the concentration at half-maximal activity (AC50) under setting [1] is 7.31 µM [rising, partial curve]. Moreover, the AC50 under setting [2] is 2.91 µM [rising, full curve].
